From patent publication US8466203B2, “Method of stabilizing human eye tissue by reaction with nitrite and related agents such as nitro compounds” (priority 2006, dated 2013)
“And” between values parts separate entries of the source, which are not always exact repeats. Equal entries are not always repeated. At least one read-out could not be matched to a standard name with certainty.

System: porcine sclera
Assay: Thermal shrinkage temperature analysis of porcine scleral strips
Settings: 100 mM reagent, pH 7.4, 37° C., 96 hrs
Description: Thermal shrinkage temperature or denaturation temperature (Ts) is a technique that has been used for decades in studying collagen cross-linking. As collagen fibers are progressively heated, a threshold temperature is reached at which point disruption of hydrogen bonding in the collagen molecule triple helix occurs, resulting in unwinding of the triple helices. The denaturation of tertiary protein structure results in a rapid shrinkage of the tissue of up to 80%. This phenomenon can be expressed in various ways including temperature of onset of tissue shrinkage, temperature at maximal tissue shrinkage, and temperature at 50% of maximal tissue shrinkage, for example. In addition, differential scanning calorimetry (DSC) is related to thermal shrinkage temperature analysis and is widely used to evaluate biomaterial cross-linking. […]
This system can perform multiple Ts assays in succession, allowing rapid screening of a number of potential cross-linking agents and conditions. […] The image files are later analyzed for 2-dimensional area using NIH Image J software and % shrinkage calculations are made using Microsoft Excel for graphing purposes. […]
Using this simple, reproducible assay enables the screening of a number of compounds for cross-linking efficacy. […] Following incubation, the samples are evaluated for degree of cross-linking using the Ts assay as described above. […]

O=[N+]([O-])CCO [2-nitroethanol]
T50 Δ (change in 50% shrinkage temperature compared to control): 8.5 °C and 7.7 °C and 8.4 °C
